Results from PubChem BioAssay AID1259415 (National Center for Advancing Translational Sciences (NCATS), 2018).
Values joined by “and” are separate entries in the source; they are usually repeats but may differ in a detail not shown here. Identical values can stand only once. Hit rate of the full screen: of about 410,000 compounds, about 18,000 (4.4%) were called active. This list was built around the results that the source calls inconclusive (neither active nor inactive); the mix of calls is not that of the screen. Rule as the data show it: active = activity change below about -60%; inconclusive = no clear call, values can overlap the other calls; inactive = above about -39%.

Experiment: qHTS Assay for inhibitors of the human cytomegalovirus (HCMV)
Details: HFF cells, HCMV-luciferase reporter, 72 h; at 57.5 µM; stronger effect = lower value
In short: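 Two compound doses tested in HFFs infected with HCMV-luciferase, MOI 1 PFU/cell, 72 h at 37C. Lysate luminescence read with OneGlo; data normalized against buffer-only and 10uM Salinomycin inhibitor controls.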
% is scaled to controls: 0 for no effect and ±100 for the full control effect.

| Structure (SMILES) | activity change, negative = inhibition |
| --- | --- |
| COc1cccc(N2CC(NC(=O)/C=C\c3ccc(OC)c(OC)c3)CC2=O)c1 (stereo unspecified) | inconclusive: -48.6% |
| O=S(=O)(Nc1cccc(S(=O)(=O)N2CCCCC2)c1)c1ccc(Cl)s1 | active: -66.5% |
| c1ccc2c(Nc3ccc4c(c3)OCCO4)c3c(nc2c1)CCCC3 | active: -72.9% |
| Cc1ccc(CNC(=O)Cn2c(=O)n(Cc3ccc(F)cc3)c(=O)c3sc4ccccc4c32)cc1 | active: -64.6% |
| Cc1ccc(S(=O)(=O)N2C[C@@H]3CCCC[C@@H]3[C@@H](C)[C@H]2c2cn(Cc3ccccc3)c3ccccc23)cc1 | active: -97.2% |
| CCOc1ccc2[nH]c(=O)c(CN(Cc3cccs3)C(CC)c3nnnn3C(C)(C)CC)cc2c1 (stereo unspecified) | inconclusive: -55.1% |
| CCN1CCc2c(sc(NC(=O)c3ccc(S(=O)(=O)N4CCOCC4)cc3)c2C(=O)OC)C1 | inactive: 15.3% |
| O=C(CC(c1ccccc1)c1ccccc1)Nc1ccc2c(c1)OCCO2 | inactive: -34.2% |
| O=S(=O)(Nc1nc2ccccc2nc1N1CCN(c2ccccc2)CC1)c1ccc(F)cc1 | inactive: 9.66% |
| Cn1c(=O)c2cc(NC(=O)NCc3ccc(F)cc3)ccc2n1C/C=C/c1ccccc1 | active: -62.9% |
| CCN(CC)c1ccc(-c2nc(-c3ccco3)no2)cc1[N+](=O)[O-] | inactive: -21% |
| CCC(C)NC(=O)c1sc2nc(C)c(C(=O)Nc3ccc(C)cc3C)c(-c3ccccc3Cl)c2c1N (stereo unspecified) | inactive: -20.9% |
| Cc1cc(=O)[nH]c(N/N=C/c2cccc([N+](=O)[O-])c2)n1 | inactive: 35.3% |
| COCCN1CC(C(=O)N2CCC(Oc3ccccc3OC)CC2)CCC1=O (stereo unspecified) | inactive: -12.4% |
| NCC(c1ccc(Cl)cc1Cl)c1c[nH]c2ccccc12 (stereo unspecified) | inactive: 65.9% |
| c1ccc(CCN2CCN=C2Nc2ccccc2)cc1 | inconclusive: -53.6% |
| c1ccc2c(c1)OCCOCCOCCOCCOc1ccccc1OCCOCCOCCO2 | inconclusive: -48.7% |
| COc1ccc(-c2ccc(CCC(=O)O)n2CC(=O)Nc2cccc(OC)c2)cc1 | inconclusive: -50.2% |
| C/C(=N\NC(=O)Cc1ccc(Cl)cc1)c1ccccc1O | active: -67.2% |
| C=CCNCCOCCOc1ccccc1-c1ccccc1 | inconclusive: -46.9% |
| N#Cc1sc2nc3c(c(-c4ccco4)c2c1N)CCCC3 | inconclusive: -45.8% |
| Cc1ccc(OCCCSc2nc(-c3ccc(C(C)(C)C)cc3)nc3cc(=O)[nH]n23)cc1C | inconclusive: -53.1% |

| Structure (SMILES) | activity change, negative = inhibition |
| --- | --- |
| O=C(C1CCCC1)N1CCCC(Nc2ccc(F)cc2)C1 (stereo unspecified) | inconclusive: -48.5% |
| O=C(NC(=S)N1CCN(C/C=C/c2ccccc2)CC1)c1ccco1 | inconclusive: -49.6% |
| CCNC(=O)Cn1nc(C)n2c(cc3c(OC)cccc32)c1=O | inconclusive: -44.8% |
| Nc1[nH]c(C(=O)c2ccc(Br)cc2)c(-c2ccc(Cl)cc2Cl)c1C(=O)NCCc1c[nH]c2ccccc12 | inconclusive: -42.4% |
| O=C(CSc1n[nH]c(=O)n1C1CC1)Nc1ccccc1 | inactive: -3.86% |
| O=C(Nc1cccc([N+](=O)[O-])c1)c1ccc2snnc2c1 | inconclusive: -40.6% |
| CCN1CCN(C(CC(C)C)c2nnnn2CS(=O)(=O)c2ccc(C)cc2)CC1 (stereo unspecified) | inconclusive: -50.1% |
| CC(=O)Nc1ccc(NC(=O)CCn2cnnn2)cc1 | inactive: -37.5% |
| Cc1nc(N2CCCCC2)nc(N2CCCCC2)c1C=O | inactive: -32.7% |
| CCOc1ccc(S(=O)(=O)N(C)c2ccc(OCC(=O)NCCc3ccc(OC)cc3)cc2)cc1 | inconclusive: -51.1% |
| COc1ccc(Nc2ncnc3c2cnn3-c2ccccc2)cc1OC | inconclusive: -43% |
| Cc1cccn2c(=O)c3cc(C(=O)NC4CCCCC4)c(=N)n(Cc4ccccc4)c3nc12 | active: -61.3% |
| COc1cc(Br)cc(CNc2ccc(F)c([N+](=O)[O-])c2)c1O | inconclusive: -44.3% |
| CC(C)Sc1nc(-c2cccs2)nc2cc(Cl)ccc12 | inactive: -19.4% |
| O=C(Nc1ccc(-c2nc3cc(NC(=O)c4cccs4)ccc3o2)cc1)c1cccs1 | active: -70.2% |
| O=C(CSc1ccccc1)NCC1(N2CCOCC2)CCCCC1 | active: -76.8% |
| CCc1nnc(NC(=O)c2ncc(Cl)c(Cl)c2Cl)s1 | inconclusive: -52.8% |
| Cc1cccc(C)c1NC1=C(Cl)C(=O)OC1OC(C)C (stereo unspecified) | inconclusive: -52.8% |
| Cc1cc(C)c(CN2CCN(C(=O)Cn3cnc4c(OCc5ccccc5)ncnc43)CC2)c(C)c1 | active: -64% |
| COc1cccc(C(=O)Nc2cccc(C(=O)OCc3cc(=O)n4c(C)csc4n3)c2)c1 | inconclusive: -49.1% |
| CCCS(=O)(=O)NC(=O)C1(C)CCN(C(=O)c2cccs2)C1 (stereo unspecified) | inactive: 21% |
| Cc1cccc(C(=O)OCC(=O)c2c(N)n(CC(C)C)c(=O)n(C)c2=O)c1[N+](=O)[O-] | inconclusive: -44% |

| Structure (SMILES) | activity change, negative = inhibition |
| --- | --- |
| COc1cccc(CN2CCNC(=O)C2CC(=O)N(C)C2CCOCC2)c1 (stereo unspecified) | inactive: 0% |
| O=C(N/C(=C/c1ccc(Br)cc1)C(=O)N1CCCC1=O)c1ccco1 | inconclusive: -43.9% |
| CCCCN(CCCC)C(=S)NC(=O)C(C)(C)C | inconclusive: -41.7% |
| COc1cc(C(=O)c2c(C)c(CCC#N)n3ccccc23)cc(OC)c1OC | inconclusive: -44.7% |
| O=C(c1ccco1)N1CCN(c2ccc(Cl)cc2)CC1 | inactive: 11.7% |
| CN(C)c1ccc(NC(=O)CSC2=Nc3ccccc3C3=NC(CCC(=O)NCc4cccs4)C(=O)N23)cc1 (stereo unspecified) | inactive: -17.5% |
| Cc1cccc(C)c1NC(=O)COC(=O)COc1ccc2c(C)cc(=O)oc2c1 | inconclusive: -52.5% |
| c1ccc(CCC2Cc3ccccc3N2)cc1 (stereo unspecified) | inconclusive: -41.7% |
| Cn1cccc1/C=N/NC(=O)C12CC3CC(CC(C3)C1)C2 | inconclusive: -40.1% |
| O=C(/C=C/c1cccc(Br)c1)NCc1ccncc1 | inconclusive: -40.6% |
| CCOC(=O)N1CCN(C(=O)c2ccc3c(c2)N=C(C)c2cc(Cl)ccc2S3)CC1 | inconclusive: -43.7% |
| Cc1ccc(S(=O)(=O)C(c2ccccc2)c2c(C)noc2C)cc1 (stereo unspecified) | active: -72.1% |
| CCC1CCCCN1CCCNC(=O)CCCOc1cc(=O)n(C)c2ccccc12 (stereo unspecified) | inactive: 68.7% |
| COc1ccc(C(=O)NCCn2cc(SCC(=O)Nc3ccc4c(c3)OCCO4)c3ccccc32)cc1OC | inactive: -10.6% |
| CCOC(=O)C1=CCN(S(=O)(=O)c2ccccc2Br)C1c1ccc(Br)cc1 (stereo unspecified) | inconclusive: -41.1% |
| C=C(C)CSc1nnc(-c2cccc(S(=O)(=O)N(C)C)c2)n1-c1cc(OC)ccc1OC | active: -70.7% |
| COCCCNC(=O)C1CCN(c2cc(C)nc3c(-c4ccc(Cl)cc4)c(C)nn23)CC1 | inactive: -2.45% |
| N#Cc1cccc(NC(=O)CCN2C(=O)C3CCCCC3C2=O)c1 (stereo unspecified) | inactive: 24.6% |
| COc1ccccc1C(C)NC(=O)CCOc1cccc(C)c1 (stereo unspecified) | inconclusive: -43.1% |
| CCOC(=O)N1CCN(C(=O)CCn2nc(-c3ccccc3)ccc2=O)CC1 | inactive: 58.1% |
| COCCn1c(SCC(=O)c2ccccc2)nc2ccccc2c1=O | inconclusive: -43.2% |
| COC(=O)C1(CC2CC(c3ccncc3)=NO2)CCN(C(=O)OC(C)(C)C)CC1 (stereo unspecified) | inconclusive: -41.4% |

| Structure (SMILES) | activity change, negative = inhibition |
| --- | --- |
| COc1ccc(CCNC(=O)CNC(=O)Cn2cnc3sc(C)c(C)c3c2=O)cc1OC | inactive: -14.2% |
| CN1CCN(c2ccc(S(=O)(=O)N3CCCCC3)cc2NC(=O)CSCc2ccccc2)CC1 | inactive: 4.67% |
| COc1ccc(NC(=O)N2CCCC(c3nc(-c4ccc(C(C)C)cc4)no3)C2)cc1 (stereo unspecified) | inconclusive: -59.8% |
| FC(F)(F)Oc1ccccc1C(c1nnnn1-c1ccc2c(c1)OCCO2)N1CCN(C/C=C/c2ccccc2)CC1 (stereo unspecified) | inactive: -27.3% |
| CC(C)(C)NC(=O)c1ccc2c(c1)C1C3CCC(C3)C1C(c1ccccc1)N2 (stereo unspecified) | inconclusive: -43.5% |
| O=C(CSc1nnc(-c2ccncc2)n1-c1ccccc1)NCC1CCCO1 (stereo unspecified) | inconclusive: -42.4% |
| Cc1cc(/C=N/n2cnnc2)c(C)n1-c1ccc(Cl)cc1Cl | inconclusive: -55.1% |
| O=C1OCCC1Sc1nnc(-c2cccnc2)n1-c1ccccc1F (stereo unspecified) | inconclusive: -50.9% |
| COc1ccccc1-c1coc2cc(OC(=O)N3CCOCC3)ccc2c1=O | inactive: 10.4% |
| O=c1cc(CN2CCOCC2)c2ccc(O)c(O)c2o1 | inactive: 32.1% |
| Cc1cc2c(c(C#N)c1C)NC=NC2C (stereo unspecified) | inconclusive: -40.5% |
| CCCc1cc(C(=O)NC2CCCN(Cc3ccccc3F)C2)no1 (stereo unspecified) | inconclusive: -41.7% |
| O=C(Nc1nc(-c2ccc3ccccc3c2)cs1)C1CCN(S(=O)(=O)c2cccs2)CC1 | active: -74.7% |
| N#Cc1ccc(CSc2nnc(-c3cccnc3)o2)cc1 | inconclusive: -54.7% |
| C/C(N)=C(/C#N)C(=O)COC(=O)COc1ccc(Cl)cc1 | inactive: 21.7% and inactive: -19.7% |
| CC(C)CN(C(=O)COC(=O)C12CC3CC(CC(O)(C3)C1)C2)c1c(N)n(Cc2ccccc2)c(=O)[nH]c1=O | inconclusive: -49% |
| CC(C)C1Cc2c(sc3ncnc(NN)c23)CO1 (stereo unspecified) | inconclusive: -42.4% |
| C=CCn1c(SCC(=O)Nc2c(C)nn(Cc3ccccc3)c2C)nnc1C(O)c1ccccc1 (stereo unspecified) | inconclusive: -42.4% |
| O=C(Nc1ccc2ccccc2c1)c1ccc(Br)o1 | inactive: 53.3% |
| CCN(CC)c1cc(C)c2cc(NC(=O)c3ccc(F)cc3Cl)ccc2n1 | inconclusive: -55.7% |
